This passage reports binding signal results from PMC7819943, “Rice protein-binding microarrays: a tool to detect cis-acting elements near promoter regions in rice”.

By UniProt entry, the sequences of proteins in these tests, tags left out.
UniProt Q0JBA9, entry or part of it: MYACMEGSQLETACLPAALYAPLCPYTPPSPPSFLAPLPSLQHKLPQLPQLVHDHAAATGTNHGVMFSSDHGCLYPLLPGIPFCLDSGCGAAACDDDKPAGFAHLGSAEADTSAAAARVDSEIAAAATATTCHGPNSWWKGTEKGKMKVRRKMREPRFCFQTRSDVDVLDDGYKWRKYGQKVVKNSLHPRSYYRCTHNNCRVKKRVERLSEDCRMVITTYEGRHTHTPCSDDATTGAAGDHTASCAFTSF

Some of the results follow.

The test deals with OsWRKY34 (Oryza sativa, UniProt Q0JBA9 1-250). Put plainly: protein-binding microarray (RPBM); PBS, 2% BSA, 51.3 ng/ul salmon testes DNA, 50 uM zinc acetate, 200 nM TF, 25 C, 1 h; high values mean tight binding. The settings on record: protein: recombinant; tags: N-terminal polyhistidine and DsRed monomer fusion (pET32a); label: CyDye5-dUTP incorporated in the synthesized complementary strand; 3' TTTTT single-stranded linker to array surface; dsDNA, one strand shown. In a few lines: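 Transcription factors, each fused N-terminally to a polyhistidine tag and DsRed, were expressed in E. coli BL21-CodonPlus and purified on Ni–NTA. A custom Agilent array was made double-stranded by primer extension with Cy5-dUTP and blocked with 2% BSA. It was incubated with 200 nM protein in PBS, 2% BSA, salmon testes DNA and 50 µM zinc acetate at 25 °C for 1 h, then washed. The binding signal is per-feature fluorescence intensity (arbitrary units) read on an Axon 4000B scanner.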
Turning to “TGTCGGCGAACTTTCATATGTATATGCATGTCATATATTTCGGAGTCACCTAGTGCAG”, the binding signal was 9060 fluorescence intensity (a.u.). In the case of “TCTTCGATTGGCGTTTTTAATTTGTTGGTGTCAAGTCTTACGGAGTCACCTAGTGCAG”, the binding signal is 10600 fluorescence intensity (a.u.). The same measure for “TCAGGTACCTCTTTTGGCAGTCATTTGCATTCCTTCTTGTCGGAGTCACCTAGTGCAG”: 15700 fluorescence intensity (a.u.); for “CCGGGTTCCTGTTTTTTCAACGCATGCACACTTTAATCTACGGAGTCACCTAGTGCAG”: 9290 fluorescence intensity (a.u.); for “CCTGATATCTCCCATCGTTCCCGTCCCGGCGTTGACGGGGCGGAGTCACCTAGTGCAG”: 8600 fluorescence intensity (a.u.). The same measure for “AGAGACCTCTATTGCTGTGATATTCTGTCTTCCTGTGATACGGAGTCACCTAGTGCAG”: 8060 fluorescence intensity (a.u.). The same measure for “TTTTCCCAATTCAATCCTTGTAGGATGCTCGATTACATCACGGAGTCACCTAGTGCAG”: 8340 fluorescence intensity (a.u.); for “ATAGTACGAATGGTTAGCCCAAAAGTCAGTGTCTTCATTCCGGAGTCACCTAGTGCAG”: 10300 fluorescence intensity (a.u.); for “ATGTGTTAGGGTTTAATCTTTCGGTTTGGATGTTTCTATCCGGAGTCACCTAGTGCAG”: 8720 fluorescence intensity (a.u.). Regarding “CTTCGCTCCACCCGTCAACGTCTGTTTGTTGTATTCCCCTCGGAGTCACCTAGTGCAG”, the binding signal is 10800 fluorescence intensity (a.u.). With “CCTCTCTCGCTCATTTTCGCCGCCGCCACCACCGACGATGCGGAGTCACCTAGTGCAG”, the binding signal was 13300 fluorescence intensity (a.u.). For “CCTCAAACCCCACGAGTTCTCCGTCAGATTCCGCCGCCACCGGAGTCACCTAGTGCAG” the value was 10700 fluorescence intensity (a.u.); for “ATTTGGACCACCACGAATGATTTTTTTTCTCATGCAATCACGGAGTCACCTAGTGCAG”, 9820 fluorescence intensity (a.u.); for “ATTCTTCGGTTCTTGCTAATTGGTTGTTTGATCTGGAAGACGGAGTCACCTAGTGCAG”, 8760 fluorescence intensity (a.u.). Turning to “CTTTTCTTCTTTTTTCATATCTCCAAGAATCCTTTCACATCGGAGTCACCTAGTGCAG”, the binding signal is 8030 fluorescence intensity (a.u.).

Turning to “AAACTTAATGTTTCACGCTTCATAATTCACAACCTGTCAGCGGAGTCACCTAGTGCAG”, the binding signal is 9510 fluorescence intensity (a.u.). Regarding “GTTTGACCACGCCTTGGCCACTTCCGCTACTCCACTCCACCGGAGTCACCTAGTGCAG”, the binding signal was 13100 fluorescence intensity (a.u.). On to “GTTGTGGTCGTTAGCAGGCATTGCTTCCTTTAGGGATTTGCGGAGTCACCTAGTGCAG”, for which the binding signal was 8850 fluorescence intensity (a.u.). With “AGGCGGCCGCACCCCGTTCACTTCCTTCTTTCTGGCTGCTCGGAGTCACCTAGTGCAG”, the binding signal was 8560 fluorescence intensity (a.u.). On to “CATGTTTGCCATCTGTTCTGCTTGCTTTATTTGTGGCCTTCGGAGTCACCTAGTGCAG”, for which the binding signal is 13600 fluorescence intensity (a.u.). On to “AGTTAGTGTGCAGTACTTGCCTTCTCGAGTTCATGGCTTCCGGAGTCACCTAGTGCAG”, for which the binding signal was 8740 fluorescence intensity (a.u.). Take “CTCAGCCACCTCGCCTATATATACATCCCATGCCTAGCTTCGGAGTCACCTAGTGCAG”: the binding signal is 11100 fluorescence intensity (a.u.). For “AGTTCTTGTCACATGCTGCAATTGTTGGGTTTATGGGAGGCGGAGTCACCTAGTGCAG”, the binding signal was 8410 fluorescence intensity (a.u.). Consider “TTCCCCATCCACACCTCACGGGAAGCTGTCCCTTCTCCTCCGGAGTCACCTAGTGCAG”, for which the binding signal is 10700 fluorescence intensity (a.u.). For “AGGATTTTTTTTTCTGCATGTGTTTTTTGTTATCTTTACACGGAGTCACCTAGTGCAG” the value was 9660 fluorescence intensity (a.u.). The same measure for “TTACACATTTCTTTAAAACTTGTATACACTTCACTTGTTTCGGAGTCACCTAGTGCAG”: 9800 fluorescence intensity (a.u.); for “TTTAAGCACAACTTTTCGTTTTTTATATTTGCACAAGTTTCGGAGTCACCTAGTGCAG”: 8940 fluorescence intensity (a.u.).

On to “TTTTTATGTTTTTCCTGCGGTCCAATCAAACGGCCATTCACGGAGTCACCTAGTGCAG”, for which the binding signal was 12000 fluorescence intensity (a.u.). For “GGGAGGCGGGGAGTTGCTGCCAACACCAGGGGAGGGAAGCCGGAGTCACCTAGTGCAG”, the binding signal was 12100 fluorescence intensity (a.u.). With “CAAGCTTTAGCCTCCGGCCCGTGCTTCTCCAACTCGCTCTCGGAGTCACCTAGTGCAG”, the binding signal is 8660 fluorescence intensity (a.u.). With “TATACACCACGTTTGCTGGCTTGGCTTCCTTCCACACTCCCGGAGTCACCTAGTGCAG”, the binding signal is 8160 fluorescence intensity (a.u.).

“TCCGGGACTGGTTTCCTCTCCCTTTTTGTTGGTCTCTGTTCGGAGTCACCTAGTGCAG”: the binding signal is 10600 fluorescence intensity (a.u.).

With “ACCTCCACGCACCACCGCATCTCCGCCTAGGGTTTCCTCCCGGAGTCACCTAGTGCAG”, the binding signal is 8870 fluorescence intensity (a.u.). Consider “GCTCTCCTGCCCTGCCTCGTCTCCTCCGCTCAGCTCAGCTCGGAGTCACCTAGTGCAG”, for which the binding signal was 9580 fluorescence intensity (a.u.). With “TTTTTTGCTTTTTCATGAATTCTTCAGACATGATGTAAACCGGAGTCACCTAGTGCAG”, the binding signal was 8500 fluorescence intensity (a.u.).

Consider “TTGCACTGTGTCGCCGGCGCGTCGCAGATCCTATCATTCCCGGAGTCACCTAGTGCAG”, for which the binding signal is 8110 fluorescence intensity (a.u.). For “CTTCTTCCTACGTTCTATCGCTTCTCCGCCGCCGCCGCCGCGGAGTCACCTAGTGCAG” the value was 8440 fluorescence intensity (a.u.). Consider “AATGGATATCAGGATATGAAGCTCAAAGTTATCGGTTATTCGGAGTCACCTAGTGCAG”, for which the binding signal was 8240 fluorescence intensity (a.u.). For the sequence “GTGTGATCTCCATATTAGCCTTCTTACTACCCAACCCTCACGGAGTCACCTAGTGCAG”, the binding signal was 8100 fluorescence intensity (a.u.). For “CTTATTTGTTTACTATGGTAGTTTGTCACTCCTGTCAATTCGGAGTCACCTAGTGCAG”, the binding signal was 9670 fluorescence intensity (a.u.).

Regarding “CTGCTCCTACCACTCACTAATCCGTAGCTTCACCGGATCCCGGAGTCACCTAGTGCAG”, the binding signal was 8110 fluorescence intensity (a.u.). On to “GCCGCATCTCTTCTCTCTCTACTCTCCCACCCTCCACCTCCGGAGTCACCTAGTGCAG”, for which the binding signal is 8160 fluorescence intensity (a.u.).
